PubChem BioAssay AID1259254 – NCATS, 2017

Assay: 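Gene knock-downs that lead to re-replication, shown by excess G2 DNA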 (primary screen)
System: human HCT116 colorectal cancer cells
Knock-down reagent: single siRNA against human genes
Duration: 3 days
Measurement: 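Nuclei stained with Hoechst and imaged; cell-cycle phase assigned by DNA content; G2 share scaled per plate, non-targeting siRNA 0%, GMNN siRNA 100%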
Direction: G2 robust z-score: higher = more G2 cells, more excess DNA replication
Call rule: 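An siRNA counts as active if its G2 robust z-score lies at least 5 MADs above the screen median; here such calls match roughly 38% of GMNN control or more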
This is one part, drawn at random, of about 59,000 reagents. About 1,550 of them (2.6%) count as active. 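G2 share is only a proxy for re-replication; each gene was hit by three separate siRNAs, and active genes were retested.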 Entries without a mark were called inactive. Reagents against one gene are numbered here. Further read-outs or replicates are left out here. Not given: the amount of reagent.

ZHX2 (zinc fingers and homeoboxes 2) #1 | G2 robust z-score = -0.698
ZHX2 (zinc fingers and homeoboxes 2) #2 | G2 robust z-score = -0.877
ZHX2 (zinc fingers and homeoboxes 2) #3 | G2 robust z-score = -0.885
COL6A2 (collagen type VI alpha 2 chain) #1 | G2 robust z-score = -0.44
COL6A2 (collagen type VI alpha 2 chain) #2 | G2 robust z-score = -0.303
COL6A2 (collagen type VI alpha 2 chain) #3 | G2 robust z-score = 0.0753
SOCS3 (suppressor of cytokine signaling 3) #1 | G2 robust z-score = 5.11 (active)
SOCS3 (suppressor of cytokine signaling 3) #2 | G2 robust z-score = 0.389
SOCS3 (suppressor of cytokine signaling 3) #3 | G2 robust z-score = -1.05
AADACL3 (arylacetamide deacetylase like 3) #1 | G2 robust z-score = 0.85
AADACL3 (arylacetamide deacetylase like 3) #2 | G2 robust z-score = 3.1
AADACL3 (arylacetamide deacetylase like 3) #3 | G2 robust z-score = -0.53
SGCZ (sarcoglycan zeta) #1 | G2 robust z-score = -0.0676
SGCZ (sarcoglycan zeta) #2 | G2 robust z-score = 3.2
SGCZ (sarcoglycan zeta) #3 | G2 robust z-score = -0.877
NBEAL1 (neurobeachin like 1) #1 | G2 robust z-score = -0.426
NBEAL1 (neurobeachin like 1) #2 | G2 robust z-score = -0.00289
NBEAL1 (neurobeachin like 1) #3 | G2 robust z-score = 2.61
NBEAL1 (neurobeachin like 1) #4 | G2 robust z-score = -1.39
NBEAL1 (neurobeachin like 1) #5 | G2 robust z-score = -0.686
NBEAL1 (neurobeachin like 1) #6 | G2 robust z-score = -0.812
BMP15 (bone morphogenetic protein 15) #1 | G2 robust z-score = 1.34
BMP15 (bone morphogenetic protein 15) #2 | G2 robust z-score = 1.66
BMP15 (bone morphogenetic protein 15) #3 | G2 robust z-score = -0.187

4 of these entries, set out differently.
{"gene": "NBEAL1 (neurobeachin like 1)", "reagent": 6, "G2 robust z-score": -0.812}
{"gene": "BMP15 (bone morphogenetic protein 15)", "reagent": 1, "G2 robust z-score": 1.34}
{"gene": "BMP15 (bone morphogenetic protein 15)", "reagent": 2, "G2 robust z-score": 1.66}
{"gene": "BMP15 (bone morphogenetic protein 15)", "reagent": 3, "G2 robust z-score": -0.187}
